From US7544657B2 (Zealand Pharma A/S, priority 2002, dated 2009)

Assay: general procedure: Fmoc solid-phase peptide synthesis; TentaGel S-RAM
Details: whole synthesis, scale of the general procedure 1.0 g resin

H-His-Gly-Glu-Gly-Thr-Phe-Thr-Ser-Asp-Leu-Ser-Lys-Glu-Met-Glu-Glu-Glu-Ala-Val-Arg-Leu-Phe-Ile-Glu-Trp-Leu-Lys-Asn-Gly-Gly-Pro-Ser-Ser-Gly-Ala-Pro-Pro-Ser-Lys-Lys-Lys-Lys-Lys-Lys-NH2
final purity (method not given): better than 95%
